Patent publication US20150166679A1
No constants are given. Whether binding was seen depends on the method and setting. Some binding calls cover weakened binding; strength is not graded here.

Amino acid sequences for entries named in this document (tags omitted). A change or cut given only in a name is not applied to a line headed by its entry. Residues count along the entry.
UniProt Q9NNX6, residues 62-404: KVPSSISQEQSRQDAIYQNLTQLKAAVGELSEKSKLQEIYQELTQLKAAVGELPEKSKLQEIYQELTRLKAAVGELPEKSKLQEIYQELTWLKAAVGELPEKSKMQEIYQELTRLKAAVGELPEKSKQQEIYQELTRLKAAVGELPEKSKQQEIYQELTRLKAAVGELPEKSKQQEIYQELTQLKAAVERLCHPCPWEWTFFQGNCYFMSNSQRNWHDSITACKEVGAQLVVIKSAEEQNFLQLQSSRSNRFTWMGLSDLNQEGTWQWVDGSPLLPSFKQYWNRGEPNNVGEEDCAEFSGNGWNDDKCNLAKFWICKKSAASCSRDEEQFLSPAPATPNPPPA
UniProt P01833: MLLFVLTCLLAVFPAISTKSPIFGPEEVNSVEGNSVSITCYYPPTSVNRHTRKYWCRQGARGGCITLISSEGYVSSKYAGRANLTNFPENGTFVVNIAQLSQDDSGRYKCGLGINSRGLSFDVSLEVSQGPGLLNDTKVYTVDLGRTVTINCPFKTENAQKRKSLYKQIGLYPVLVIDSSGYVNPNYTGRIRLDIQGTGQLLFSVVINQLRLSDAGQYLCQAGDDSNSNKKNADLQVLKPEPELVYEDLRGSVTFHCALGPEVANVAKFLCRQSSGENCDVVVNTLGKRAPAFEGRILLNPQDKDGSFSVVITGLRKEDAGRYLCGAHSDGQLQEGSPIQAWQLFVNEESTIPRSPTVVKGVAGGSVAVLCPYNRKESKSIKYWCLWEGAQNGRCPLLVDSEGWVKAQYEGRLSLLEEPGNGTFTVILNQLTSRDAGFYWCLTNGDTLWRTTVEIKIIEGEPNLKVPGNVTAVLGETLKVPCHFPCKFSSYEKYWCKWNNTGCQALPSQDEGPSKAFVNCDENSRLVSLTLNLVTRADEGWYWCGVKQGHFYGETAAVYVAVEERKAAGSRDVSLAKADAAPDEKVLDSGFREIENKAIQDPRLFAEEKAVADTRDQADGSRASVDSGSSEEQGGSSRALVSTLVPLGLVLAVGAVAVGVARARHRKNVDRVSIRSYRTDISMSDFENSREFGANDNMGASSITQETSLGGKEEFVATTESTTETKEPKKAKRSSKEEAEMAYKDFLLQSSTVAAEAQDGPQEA

How the values were obtained:
[1] = biological target: DC-SIGN-Fc fusion protein (R&D Systems, no. 161-DC-050) (human) (UniProt Q9NNX6); assay: ELISA, DC-SIGN-Fc coated, SC serially diluted from 1 microgram per ml, anti-human SC-HRP detection; weaker than SC from CHO LEC11 after desialylation
[2] = biological target: DC-SIGN-Fc fusion protein (R&D Systems, no. 161-DC-050) (human) (UniProt Q9NNX6); assay: ELISA, DC-SIGN-Fc coated, SC serially diluted from 1 microgram per ml, anti-human SC-HRP detection; weaker than the same SC after desialylation

Row | binding [1] | binding [2] | Substance
1 | binds |  | desialylated recombinant human secretory component produced in CHO DUK- (from UniProt P01833 19-607) (receptor)
2 |  | binds | sialylated recombinant human Secretory Component expressed in CHO LEC11 (from UniProt P01833 19-607) (receptor)
